Article doi:10.1101/2024.07.23.604836
Results are given in words; binding and its absence hold for the method and conditions named. Tags and fused reporters may be left off the sequences shown.

Target: T1, Poliovirus receptor (PVR, CD155) on the surface of Mel526 cells (human (endogenous in Mel526)), P15151
T1 chain: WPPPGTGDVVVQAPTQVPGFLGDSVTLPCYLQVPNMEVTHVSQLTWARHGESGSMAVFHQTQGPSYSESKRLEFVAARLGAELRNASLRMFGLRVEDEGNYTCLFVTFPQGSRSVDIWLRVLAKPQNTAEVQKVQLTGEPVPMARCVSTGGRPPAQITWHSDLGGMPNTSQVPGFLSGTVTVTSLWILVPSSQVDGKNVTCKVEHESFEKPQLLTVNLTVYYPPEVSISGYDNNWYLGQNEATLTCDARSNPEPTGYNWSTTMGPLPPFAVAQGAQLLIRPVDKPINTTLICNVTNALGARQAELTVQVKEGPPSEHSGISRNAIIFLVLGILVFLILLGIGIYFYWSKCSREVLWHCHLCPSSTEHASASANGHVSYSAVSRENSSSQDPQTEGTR
Test: flow cytometry on cells
Conditions: remark: other sources report otherwise

B1: CD96-Fc (soluble, Fc-tagged ectodomain of CD96), P40200 22-519 (Fc fusion)
chain: VWEKTVNTEENVYATLGSDVNLTCQTQTVGFFVQMQWSKVTNKIDLIAVYHPQYGFYCAYGRPCESLVTFTETPENGSKWTLHLRNMSCSVSGRYECMLVLYPEGIQTKIYNLLIQTHVTADEWNSNHTIEIEINQTLEIPCFQNSSSKISSEFTYAWSVENSSTDSWVLLSKGIKEDNGTQETLISQNHLISNSTLLKDRVKLGTDYRLHLSPVQIFDDGRKFSCHIRVGPNKILRSSTTVKVFAKPEIPVIVENNSTDVLVERRFTCLLKNVFPKANITWFIDGSFLHDEKEGIYITNEERKGKDGFLELKSVLTRVHSNKPAQSDNLTIWCMALSPVPGNKVWNISSEKITFLLGSEISSTDPPLSVTESTLDTQPSPASSVSPARYPATSSVTLVDVSALRPNTTPQPSNSSMTTRGFNYPWTSSGTDTKKSVSRIPSETYSSSPSGAGSTLHDNVFTSTARAFSEVPTTANGSTKTNHVHITGIVVNKPKDGM
- binding: no binding (tested: 5 μg/mL)
